10 molecules from the supplement of paper PMC8551327 can be followed below.

Where a name gives a salt, the structure may show the parent alone. This is one part of the list. Cut-off read from the data, not from the text of the source: active = 1.25 or more and inactive = the rest. Repeats are few or missing, and single values can be far off.

The experiment has as its system Kcc2-LUC knock-in mouse primary cortical neurons (Kcc2 promoter reporter). In words: Kcc2 promoter-driven luciferase activity relative to vehicle control (fold of vehicle (ratio)); higher = stronger Kcc2 promoter activation (Kcc2 expression enhancer). As to conditions: 100 nM; 48 h.
As to `C[C@H](N)C(=O)N[C@@H]1[C@H]2C(=C(O)C[C@@H](O)[C@@H]2O)C(=O)O[C@]1(C)C(Cl)Cl` [Bactobolin], the “Kcc2 promoter-driven luciferase activity” value is inactive: 0.68.
Turning to `N#CC(NCc1cccc(CNC(C#N)c2ccccc2)c1)c1ccccc1` (stereo not given), the “Kcc2 promoter-driven luciferase activity” value was inactive: 0.97.
As for `C[n+]1cc2cc(O)c(O)cc2c2ccc3cc(O)c(O)cc3c21.c1ccncc1`, the “Kcc2 promoter-driven luciferase activity” value is inactive: 0.83.
Then `C[C@@]12C(=O)OC(=O)[C@]1(C)[C@H]1CC[C@@H]2O1` [Cantharidin], with inactive: 1.24; and `C=C(C)C(=O)OC1CCC2(C)C(CCC3C2CCC2(C)C(c4ccc(=O)oc4)CC4OC432)C1` (stereo not given) [Resibufogenin derivative], with inactive: 0.999; and `COc1cccc2c1C(=O)c1c(O)c3c(c(O)c1C2=O)C[C@@](O)(C(C)=O)C[C@@H]3O[C@H]1C[C@H](N(Cc2ccccc2)Cc2ccccc2)[C@H](O)[C@H](C)O1` [N,N-Dibenzyldaunorubicin hydrochloride], with inactive: 1.1.
With `OC1CC2CCC(C1)N2` (stereo not given) [8-Azabicyclo(3.2.1)octan-3-ol], the “Kcc2 promoter-driven luciferase activity” value is active: 1.41.
The figure for `COc1cc([C@@H]2c3cc4c(c(O)c3C[C@H]3COC(=O)[C@@H]32)OCO4)cc(OC)c1O` [Alpha-Peltatin] is inactive: 0.86.
The figure for `CC(C)OP(=O)(OC(C)C)C(N(C)C)P(=O)(OC(C)C)OC(C)C.[Cl][Sn]([Cl])([Cl])[c]1ccccc1` is inactive: 0.98; for `C[C@@H]1CC[C@@]2(OC1)O[C@H]1CC3[C@@H]4CC=C5C[C@@H](O[C@@H]6O[C@H](CO)[C@@H](O[C@@H]7O[C@@H](C)[C@H](O[C@@H]8O[C@@H](C)[C@H](O)[C@@H](O)[C@@H]8O)[C@@H](O)[C@H]7O)[C@H](O)[C@H]6O[C@@H]6O[C@@H](C)C(O)[C@@H](O)[C@H]6O)CC[C@]5(C)[C@H]4CC[C@]3(C)[C@H]1[C@@H]2C` (stereo not given in full) [Polyphyllin B, DIOSGENIN TETRAGLYCOSIDE] it is inactive: 1.04.
